Test results: article PMC11109111
These are yes or no findings as the source states them, for the method shown. For some of these results: Binding seen in cells or lysates may run through a third protein. Some binding calls cover weakened binding; strength is not graded here. Tags and fused reporters may be left off the sequences shown.

Tests used:
[1] = biological target: T1, GRAIN WEIGHT 6a (GW6a), yeast two-hybrid fusion used for the screen (rice (Oryza sativa)) (UniProt Q67UR2); assay: two-hybrid; yeast two-hybrid screen for proteins that interact with GW6a; no methods given
T1 sequence: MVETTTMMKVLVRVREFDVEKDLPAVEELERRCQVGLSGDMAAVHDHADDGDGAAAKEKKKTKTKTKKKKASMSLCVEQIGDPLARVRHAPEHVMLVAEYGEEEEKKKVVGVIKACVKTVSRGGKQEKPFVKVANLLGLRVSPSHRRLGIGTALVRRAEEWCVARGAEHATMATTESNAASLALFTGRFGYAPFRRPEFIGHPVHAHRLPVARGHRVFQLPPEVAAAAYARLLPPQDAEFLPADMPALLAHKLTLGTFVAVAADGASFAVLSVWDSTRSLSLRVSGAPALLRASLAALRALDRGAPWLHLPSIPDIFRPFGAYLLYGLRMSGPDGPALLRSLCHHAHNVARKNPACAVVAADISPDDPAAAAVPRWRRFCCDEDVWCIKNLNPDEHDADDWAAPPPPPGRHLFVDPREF

[2] = biological target: T2, nYFP-GW6a (tobacco leaves, pBI-2YN) (rice (Oryza sativa)) (UniProt Q67UR2); assay: split reporter; BiFC, split YFP, in N. benthamiana leaves; confocal microscopy; H2B-mCherry as nuclear marker
T2 sequence: T1 sequence

[3] = biological target: T3, GW6a-nLUC (rice (Oryza sativa)) (UniProt Q67UR2); assay: split reporter; split firefly luciferase complementation in N. benthamiana leaves; GW6a-nLUC with CLG1-cLUC, GW2-cLUC or HDR3-cLUC, with or without a third protein as GFP fusion (GW2-GFP, HDR3-GFP, CLG1-GFP); LUC signal by CCD imaging
T3 sequence: T1 sequence

[4] = biological target: GST-OsMAPK6 (rice (Oryza sativa)) (UniProt Q84UI5); assay: pull-down; GST-tag purification resin incubated with GST or the GST fusion at 4 C for 1 h, then with CLG1-Myc or His-GW6a at 4 C for 1 h; washed with PBS, 0.05% SDS, 1% Triton X-100; immunoblot with anti-GST, anti-Myc or anti-GW6a
[5] = biological target: OsMAPK6-GFP (rice (Oryza sativa)) (UniProt Q84UI5); assay: co-IP; N. benthamiana leaves co-expressing GW6a-Myc and the GFP fusion (or GFP), 72 h; total protein on anti-GFP affinity beads, 4 C, 3 h; immunoblot with anti-GFP and anti-Myc

With “MITOGEN-… PROTEIN KINASE 6 (OsMAPK6), hit of the yeast two-hybrid screen (from UniProt Q84UI5 1-398)” the binding [1] was “binds”.

“OsMAPK6-cYFP (from UniProt Q84UI5 1-398) (enzyme)” was tested, and the binding [2] was “binds”.

B1: HDR3-cLUC (protein, UniProt Q10NJ6 1-501)
chain: MAYSSRSCDQCSHERRSGFMKWLCAFLKGTKDGEANRRRPRVTAGEETTLWEEPVRPKKEEPPRHNNEEMDHALALALADDAKNTKERNHDKGENDEELARAIQDSLNMNPYQPYNPCAPSQTQARSRGYRVCGGCKHEIGHGHYLSCLGMYWHPQCFRCSSCRHPIREMEFTLLGTDPYHKLCYKELHHPKCDVCLQFIPTNRTGLIEYRAHPFWGQKYCPLHEHDRTPRCCSCEKMEPRNTKYMSLGDGRSLCMECLDSAIMDTGECQPLYHSIRDYYEGMNMKLDQQIPMLLVERQALNEAMEGESKGPHHMPETRGLCLSEEQTVTSILRRPRIGANRLLDMKTQPQKLTRRCEVTAILVLFGLPRLLTGSILAHELMHGWLRLKGYRNLKAEIEEGICQVMSYLWLESEILPSTSRYGQASTSYASSSSSSCRPPPSKKGGISHTEKKLGEFFLHQIANDTSSAYGDGFRAAYAAVNKYGLRQSLNHIRLTGGFPV
For B1, the binding [3] was “binds”.

B2: GW2-cLUC (enzyme, UniProt B9F4Q9 1-425)
chain: MGNRIGGRRKAGVEERYTRPQGLYEHRDIDQKKLRKLILEAKLAPCYMGADDAAAAADLEECPICFLYYPSLNRSKCCSKGICTECFLQMKPTHTAQPTQCPFCKTPSYAVEYRGVKTKEERSIEQFEEQKVIEAQMRMRQQALQDEEDKMKRKQNRCSSSRTITPTKEVEYRDICSTSFSVPSYRCAEQETECCSSEPSCSAQTSMRPFHSRHNRDDNIDMNIEDMMVMEAIWRSIQEQGSIGNPVCGNFMPVTEPSPRERQPFVPAASLEIPHGGGFSCAVAAMAEHQPPSMDFSYMAGSSAFPVFDMFRRPCNIAGGSMCNLESSPESWSGIAPSCSREVVREEGECSADHWSEGAEAGTSYAGSDIVADAGTMPQLPFAENFAMAPSHFRPESIEEQMMFSMALSLADGHGRTHSQGLAWL
With B2 the binding [3] was “binds”.

B3: GW2-GFP (enzyme, UniProt B9F4Q9 1-425)
chain: B2 chain
With B3 the binding [3] was “binds”.

B4: His-GW6a (protein, UniProt Q67UR2 1-419)
chain: T1 sequence
For B4, the binding [4] was “binds”.

B5: GW6a-Myc (protein, UniProt Q67UR2 1-419)
chain: T1 sequence
With B5 the binding [5] was “binds”.
